Data source: PubChem BioAssay AID1259405 (NCATS, 2018)

Aim: 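Mouse-designed siRNAs used to find CHO productivity engineering targets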 (primary screen)
Cells: Chinese hamster CHO-K1 ovary cells with stable secreted eGFP expression
Reagent: single siRNA against mouse genes, 0.8 pmol siRNA per well (2 µl of 400 nM stock)
Time to read-out: 3 days
Read-out: 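Per-well intracellular GFP measured by laser scanning cytometry, plus viability from ATP luminescence, each relative to plate median of non-targeting control wells, in %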
Direction: GFP, % of control: higher = more GFP per well, higher productivity
Call rule: 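Called active when intracellular GFP, relative to negative control, is at or above 120%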
In all, the deposit lists about 50,000 reagents; below is a random part of them. In the full data, about 4,000 (8%) were called active. 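Mouse siRNA library applied to hamster cells; one well for each siRNA.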 The numbers tell different reagents against one gene apart. Not all columns of the deposit are shown. No sequences are given here.

GFP, % of control, by gene and reagent
Klhl15 (kelch-like 15): #1 72.3 inactive; #2 80 inactive; #3 90.9 inactive
Zfyve21 (zinc finger, FYVE domain containing 21): #1 96.6 inactive; #2 104 inactive
Tdrd3 (tudor domain containing 3): #1 70.4 inactive; #2 139 active; #3 120 active
Nup98 (nucleoporin 98): #1 65.8 inactive; #2 37.7 inactive; #3 33.9 inactive
Ankmy2 (ankyrin repeat and MYND domain containing 2): #1 138 active; #2 45.2 inactive; #3 112 inactive
Cnot4 (CCR4-NOT transcription complex, subunit 4): #1 78.5 inactive; #2 65.5 inactive; #3 114 inactive
Lce1f (late cornified envelope 1F): #1 175 active; #2 148 active; #3 91.7 inactive
Hus1 (HUS1 checkpoint clamp component): #1 45.5 inactive; #2 82.2 inactive; #3 75.3 inactive
Usp24 (ubiquitin specific peptidase 24): #1 115 inactive; #2 43.4 inactive; #3 58.6 inactive
Ogt: #1 48.9 inactive; #2 43.9 inactive; #3 51.7 inactive
Sgsm2 (small G protein signaling modulator 2): #1 78.2 inactive; #2 81 inactive; #3 65.9 inactive
Lurap1l (leucine rich adaptor protein 1-like): #1 47.8 inactive; #2 117 inactive; #3 83 inactive
1700010D01Rik (RIKEN cDNA 1700010D01 gene): #1 113 inactive; #2 58.3 inactive; #3 158 active
Cars1 (cysteinyl-tRNA synthetase 1): #1 62.6 inactive; #2 60.7 inactive; #3 36.4 inactive
Magee1 (MAGE family member E1): #1 46.3 inactive; #2 54.8 inactive; #3 120 active
Ccrl2 (C-C motif chemokine receptor-like 2): #1 68.5 inactive; #2 75.9 inactive; #3 117 inactive
Tmem50b (transmembrane protein 50B): #1 64.5 inactive; #2 71.6 inactive; #3 62.6 inactive
Bms1 (BMS1, ribosome biogenesis factor): #1 47.4 inactive; #2 68.6 inactive; #3 90.7 inactive
Col4a3 (collagen, type IV, alpha 3): #1 66.6 inactive; #2 114 inactive; #3 64.5 inactive
A730008H23Rik (RIKEN cDNA A730008H23 gene): #1 43.3 inactive; #2 72.4 inactive; #3 61 inactive
Wnt3 (WNT family member 3): #1 80.8 inactive; #2 65.5 inactive; #3 39.8 inactive
Zfp974 (zinc finger protein 974): #1 62.1 inactive; #2 53.6 inactive; #3 88.9 inactive

Copied from above (6 entries):
GFP, % of control, by gene and reagent
Usp24 (ubiquitin specific peptidase 24): #2 43.4 inactive; #3 58.6 inactive
Ogt: #1 48.9 inactive; #2 43.9 inactive; #3 51.7 inactive
Sgsm2 (small G protein signaling modulator 2): #1 78.2 inactive

Continued:
GFP, % of control, by gene and reagent
Fryl (FRY like transcription coactivator): #1 92.8 inactive; #2 121 active; #3 64.6 inactive; #4 64.9 inactive; #5 73.1 inactive; #6 77.8 inactive
A930002I21Rik (RIKEN cDNA A930002I21 gene): #1 83.4 inactive; #2 20.8 inactive; #3 71.4 inactive
Actl7a (actin-like 7a): #1 35.1 inactive; #2 72 inactive
Itm2a (integral membrane protein 2A): #1 66.8 inactive; #2 62.9 inactive; #3 57.7 inactive
Or10d1 (olfactory receptor family 10 subfamily D member 1): #1 43.2 inactive; #2 75.6 inactive; #3 69.4 inactive
Ugt8a (UDP galactosyltransferase 8A): #1 175 active; #2 90.8 inactive; #3 109 inactive
Fgd3 (FYVE, RhoGEF and PH domain containing 3): #1 163 active; #2 65 inactive; #3 46.5 inactive
P3h2 (prolyl 3-hydroxylase 2): #1 87.1 inactive; #2 61.4 inactive
Ckap2l (cytoskeleton associated protein 2-like): #1 106 inactive; #2 93.3 inactive; #3 58 inactive
Brd10 (bromodomain containing 10): #1 51.6 inactive; #2 102 inactive; #3 80.7 inactive
Dhx58 (DExH-box helicase 58): #1 72.3 inactive; #2 121 active; #3 63 inactive
Commd8 (COMM domain containing 8): #1 83.1 inactive; #2 92.3 inactive; #3 92.7 inactive
Rrm1 (ribonucleotide reductase M1): #1 127 active; #2 86.8 inactive; #3 50.2 inactive
Boc (BOC cell adhesion associated, oncogene regulated): #1 79.8 inactive; #2 123 active; #3 90.4 inactive
